Experimental data taken from PubChem BioAssay AID493014 (National Center for Advancing Translational Sciences (NCATS), 2011).
In all, about 340,000 compounds went through this assay and about 170 (0.05%) were called active. This list was built around the results that the source calls inconclusive (neither active nor inactive); the mix of calls is not that of the screen. Calls come from the whole dose curve; as a rule, active = well fitted inhibition curve with a large enough effect in the signal ratio, with a control signal flat (not every such curve was filed as active); inconclusive = small, poorly fitted or top-dose-only effect, or effect the other way, or a change in a side signal; inactive = flat fitted curve, though single readings scatter; the % refers to the signal ratio. Potencies of inconclusive entries are doubtful fits and often do not repeat.
Potency is the fitted concentration of half-maximal effect.

Experiment: qHTS Assay to Find Inhibitors of Chronic Active B-Cell Receptor Signaling;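 for activity change, negative = inhibition: plate controls were basal doxycycline-induced cells for no effect and cells given 10 µM MG132 for full effect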
Conditions: ABC-DLBCL IkBa-CBG/CBR reporter, luminescence ratio (green luciferase fused to IkBa over red control in TMD8 lymphoma cells), 4 h; activity change, negative = inhibition: at 46.1 µM (top of the series) unless noted
Method in brief: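 TMD8 ABC-DLBCL cells carrying doxycycline-inducible green luciferase fused to IkappaBalpha plus unfused red luciferase were exposed to compounds (up to 46 uM) for 4 hrs at 37C. Activity came from the overlap-corrected green/red luminescence ratio.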
With `Cc1cc(-c2ccc(Cl)s2)n[nH]1` the activity change, negative = inhibition was inconclusive: -0.663%.
In the case of `NC(=O)c1ccsc1NC(=O)c1ccc(S(=O)(=O)N2CCCCC2)cc1`, the activity change, negative = inhibition is reported as inconclusive: -13.8%.
In the case of `Cc1cc(C)nc(NC(=O)c2c(-c3ccccc3Cl)noc2C)c1`, the activity change, negative = inhibition is reported as inconclusive: -0.297%.
For `CCCCn1c(N)c(N(CC(C)C)C(=O)CSc2nnc(-c3ccc(Cl)cc3)o2)c(=O)[nH]c1=O`, the “activity change, negative = inhibition” value was inactive: 11.2%.
For `O=C(Cn1c(O)c(/C=C2\C=Nc3ccccc32)sc1=O)N1CCOCC1`, the Potency was inconclusive: 6.31 µM [falling, partial curve, poor fit].
In the case of `COc1ccc(NC(=O)c2ccc3c(c2)C(=O)N(Cc2ccncc2)C3=O)cc1S(N)(=O)=O`, the activity change, negative = inhibition is reported as inconclusive: 0.0388%.
With `CN(C)c1ccc(C(=S)N2CCCCCC2)cc1` the “activity change, negative = inhibition” value was inactive: -2.61%.
In the case of `CC1(C)C2CC=C(/C=N/NC(=O)c3ccccc3Br)C1C2` (configuration not stated), the Potency is reported as inconclusive: 20.6 µM [falling, single point].
With `Cc1cccnc1Nc1nc(-c2ccccc2)cs1` the Potency was inconclusive: 35.5 µM [rising, single point].
In the case of `O=C(Nc1nc2c(s1)CCc1ccccc1-2)c1cccs1`, the activity change, negative = inhibition is reported as inconclusive: -17.9%.
In the case of `O=S(=O)(NCc1ccncc1)c1ccc(S(=O)(=O)NCC2CCCO2)cc1` (configuration not stated), the “activity change, negative = inhibition” value is reported as inactive: 3.04%.
For `Cc1cccc2cc(C#N)c(SCC#N)nc12`, the activity change, negative = inhibition was inconclusive: -5.15%.
In the case of `CCOC(=O)c1c(C)n(C)c2cc(Br)c(OC)cc12`, the Potency is reported as inconclusive: 35.5 µM [rising, partial curve, poor fit].
In the case of `O=C(Nc1sc2c(c1C(=O)O)CCC2)c1cccc(Cl)c1`, the activity change, negative = inhibition is reported as inconclusive: 289%.
For `O=c1c2ccccc2nc(CSc2ncnc3nc[nH]c23)n1-c1cccc(C(F)(F)F)c1`, the Potency was inconclusive: 9.2 µM [falling, partial curve, poor fit].
With `O=C(N/N=C/c1cccs1)C(O)c1ccccc1` (configuration not stated) the Potency was inconclusive: 22.4 µM [falling, single point].
With `CCN(CC(=O)NCc1cccs1)C(=O)C(c1ccccc1)c1ccccc1` the “activity change, negative = inhibition” value was inactive: 0.487%.
With `CSCC[C@H](N)C(=O)NC[C@H]1CC[C@H](C(=O)N[C@@H](Cc2ccccc2)C(=O)O)CC1` the activity change, negative = inhibition was inconclusive: 3.08%.
In the case of `O=C(Nc1ccc(S(=O)(=O)N2CCCCCC2)cc1)C1CCCO1` (configuration not stated), the activity change, negative = inhibition is reported as inconclusive: 1.75%.
For `Cc1nc(NC(=O)c2ccccc2)sc1C`, the activity change, negative = inhibition was inconclusive: 3.2%.
With `Cc1ccc(OCCn2cc(C(=O)O)c3ccccc32)cc1` the “activity change, negative = inhibition” value was inactive: -1.15%.
In the case of `COCCNC(=S)NNc1ccc(Cl)c(C(=O)O)c1`, the Potency is reported as inconclusive: 28.2 µM [falling, single point].
With `N#Cc1ccccc1NC(=O)COC(=O)CN1C(=O)C2CCCCC2C1=O` (configuration not stated) the activity change, negative = inhibition was inconclusive: 1.61%.
In the case of `CCOC(=O)CSc1nnc(-c2cc(OC)c(OC)c(OC)c2)o1`, the “activity change, negative = inhibition” value is reported as inactive: -21.9%.
For `CCOC(=O)c1nnn(-c2nonc2N)c1-c1cccc2ccccc12`, the activity change, negative = inhibition was inconclusive: -3.56%.
For `COc1cccc2oc3cc(C#CC4(O)CCCCC4)ccc3c(=O)c12`, the Potency was inconclusive: 1.58 µM [rising, full curve, poor fit].
In the case of `COc1cc(/C=N/Nc2nncc3ccccc23)cc(OC)c1OC`, the activity change, negative = inhibition is reported as inconclusive: -19.4%.
With `COc1cccc(-c2nc(-c3ccc(NC(=O)c4cccs4)cc3)no2)c1` the activity change, negative = inhibition was inconclusive: -0.865%.
In the case of `COC(=O)C1=C(C)N(c2ccc(F)cc2)C(=O)C1`, the Potency is reported as inconclusive: 9.2 µM [falling, partial curve, poor fit].
For `S=C(Nc1ccc(Oc2ccccc2)cc1)NC1CCCCC1`, the Potency was inconclusive: 29.1 µM [falling, single point].
For `CN(CC(=O)Nc1ccc(N2CCOCC2)cc1)CC(=O)Nc1ccccc1[N+](=O)[O-]`, the activity change, negative = inhibition was inconclusive: -0.487%.
With `COc1ccccc1NC(=O)C(=O)/C=C(\O)c1ccccc1` the Potency was inconclusive: 35.5 µM [rising, single point].
For `CC(C(=O)NCc1ccccc1)N1CCN(c2ccc(F)cc2)CC1` (configuration not stated), the “activity change, negative = inhibition” value was inactive: 0.747%.
In the case of `CC(C)CN(CC(C)C)C(=O)Nc1ccccc1F`, the activity change, negative = inhibition is reported as inconclusive: 2.52%.
With `Cc1ccc2nc(SCC(=O)Nc3c(F)cccc3F)[nH]c2c1` the “activity change, negative = inhibition” value was inactive: -7.6%.
With `O=C(Nc1ccc2nccnc2c1)Nc1ccccc1Cl` the Potency was inconclusive: 12.6 µM [falling, partial curve].
For `O=C1CCC(C(=O)N(Cc2ccco2)C2(C(=O)NC3CCCC3)CCCCC2)N1` (configuration not stated), the activity change, negative = inhibition was inconclusive: -14.1%.
For `CC1(C)CC2(CCO1)OC(=O)CC2C(=O)NCCc1ccccc1` (configuration not stated), the “activity change, negative = inhibition” value was inactive: 9.9%.
For `CCOCCOC(=O)c1[nH]c2c(c1C)C(=O)CC(c1ccc(OC)c(OC)c1)C2` (configuration not stated), the activity change, negative = inhibition was inconclusive: 0.345%.
For `CC(=O)c1ccc(N(CC(=O)NC2CCCCC2)C(=O)CNC(=O)c2ccco2)cc1`, the “activity change, negative = inhibition” value was inactive: 0.355%.
In the case of `O=C(c1ccco1)c1nc2c(n1O)CCCCC2`, the Potency is reported as inconclusive: 29.1 µM [falling, single point].
For `O=C(NC(=S)Nc1ccc2c(c1)OCCO2)c1ccco1`, the Potency was inconclusive: 22.4 µM [falling, single point].
With `COc1nccnc1NS(=O)(=O)c1ccc(NC(=S)NC(=O)c2cccc(F)c2)cc1` the activity change, negative = inhibition was inconclusive: 10%.
With `C=C(C)C(=O)OC1(C(F)(F)F)Oc2cc(C)ccc2NC1=O` (configuration not stated) the activity change, negative = inhibition was inconclusive: -6.32%.
With `CC1CCCN(C2(O)C(=O)Nc3ccc(Br)cc32)C1` (configuration not stated) the activity change, negative = inhibition was inconclusive: 6.56%.
For `Cc1cc(NC(=O)CSc2nnc(C)c(=O)n2N)no1`, the activity change, negative = inhibition was inconclusive: -12.2%.
With `CN(CC(=O)Nc1cccc(C#N)c1)S(=O)(=O)c1cc2c(cc1Cl)NC(=O)CO2` the activity change, negative = inhibition was inconclusive: -0.327%.
With `COc1ccc(-c2nc3scc(-c4ccccc4)n3n2)cc1` the Potency was inconclusive: 1.03 µM [rising, partial curve, poor fit].
For `O=C(O)c1ccccc1-c1ccccc1C(=O)Nc1cccc(-c2nc3ccccc3o2)c1`, the Potency was inconclusive: 25.1 µM [falling, partial curve].
For `COC(=O)C1=C(C)N(c2cccc(Cl)c2)C(=O)C1`, the activity change, negative = inhibition was inconclusive: -9.62%.
With `COC(=O)c1c(NC(NC(=O)C(C)C)C(Cl)(Cl)Cl)sc2c1CCC2` (configuration not stated) the activity change, negative = inhibition was inconclusive: 9.44%.
With `C/C(=N/NC(=O)c1cc(C2CC2)[nH]n1)c1cccs1` the Potency was inconclusive: 4.61 µM [falling, single point].
